In patent US20040115666A1, “Method for identifying compounds modulating reverse cholesterol transport” (priority 2001, published 2004) one finds binding data, which are given here for 1 molecule.

The target of this assay is T1, mRXRα (mouse) (UniProt P28700).
T1 sequence (looked up): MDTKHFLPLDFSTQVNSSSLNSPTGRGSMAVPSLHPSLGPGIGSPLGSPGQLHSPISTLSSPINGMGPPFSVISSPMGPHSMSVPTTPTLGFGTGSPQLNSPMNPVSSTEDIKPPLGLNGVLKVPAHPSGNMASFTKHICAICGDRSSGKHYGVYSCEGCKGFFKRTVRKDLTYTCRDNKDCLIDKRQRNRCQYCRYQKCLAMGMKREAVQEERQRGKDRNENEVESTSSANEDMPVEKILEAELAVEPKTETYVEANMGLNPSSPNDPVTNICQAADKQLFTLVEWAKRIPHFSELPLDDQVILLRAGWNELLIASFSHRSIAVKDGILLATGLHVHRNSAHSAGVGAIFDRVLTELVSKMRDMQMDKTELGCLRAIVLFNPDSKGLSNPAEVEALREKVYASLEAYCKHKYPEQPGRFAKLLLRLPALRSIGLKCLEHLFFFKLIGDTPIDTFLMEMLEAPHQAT
Kind of assay: gel shift (EMSA) with in vitro translated hFXR and mRXRα on labelled DNA probes of the apo A-I promoter.

No constants are given. Whether binding was seen depends on the method and setting. Some binding calls cover weakened binding; strength is not graded here.

B1: hFXR (receptor, human, UniProt Q96RI1-2 1-472, looked up)
chain: MGSKMNLIEHSHLPTTDEFSFSENLFGVLTEQVAGPLGQNLEVEPYSQYSNVQFPQVQPQISSSSYYSNLGFYPQQPEEWYSPGIYELRRMPAETLYQGETEVAEMPVTKKPRMGASAGRIKGDELCVVCGDRASGYHYNALTCEGCKGFFRRSITKNAVYKCKNGGNCVMDMYMRRKCQECRLRKCKEMGMLAECLLTEIQCKSKRLRKNVKQHADQTVNEDSEGRDLRQVTSTTKSCREKTELTPDQQTLLHFIMDSYNKQRMPQEITNKILKEEFSAEENFLILTEMATNHVQVLVEFTKKLPGFQTLDHEDQIALLKGSAVEAMFLRSAEIFNKKLPSGHSDLLEERIRNSGISDEYITPMFSFYKSIGELKMTQEEYALLTAIVILSPDRQYIKDREAVEKLQEPLLDVLQKLCKIHQPENPQHFACLLGRLTELRTFNHHHAEMLMSWRVNDHKFTPLLCEIWDVQ
For B1, the binding result is on record as “binds”.
